Data from the supplement of paper PMC10626197.

Test system: MCF7
Assay: cell viability relative to DMSO control (raw); higher = more viable cells
Conditions: exposure time 72 h
Experimental: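 MCF7 cells, 1000 cells/well in 384-well plates, treated with 6x6 dose matrices of drug pairs (1:3 serial dilutions, DMSO as lowest dose) for 72 h at 37 °C. Viability read by CellTiter-Glo luminescence, 3 biological replicates. Normalised viability sets 0% at the highest doxorubicin dose and 100% at the 0,0 µM control per combination.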

C/C(=C\c1csc(C)n1)[C@@H]1C[C@@H]2O[C@]2(C)CCC[C@H](C)[C@H](O)[C@@H](C)C(=O)C(C)(C)[C@@H](O)CC(=O)N1 [ixabepilone] + C=CC(=O)Nc1cccc(Nc2nc(Nc3ccc(OCCOC)cc3)ncc2F)c1 [Spebrutinib]
cell viability [%]
Conditions | drug 2 concentration 0 µM | drug 2 concentration 0.37037 µM | drug 2 concentration 1.11111 µM | drug 2 concentration 3.33333 µM | drug 2 concentration 10 µM | drug 2 concentration 30 µM
drug 1 concentration 0.00185185 µM | 103 | 99.9 | 97.3 | 84.7 | 58.3 | 2.79
drug 1 concentration 0.00555556 µM | 111 | 101 | 100 | 95.6 | 68.9 | 1.75
drug 1 concentration 0.0166667 µM | 89 | 90.5 | 92.1 | 83.9 | 61.7 | 2.8
drug 1 concentration 0.05 µM | 95 | 95.4 | 94.9 | 80.1 | 60.6 | 1.03
drug 1 concentration 0.15 µM | 95.7 | 101 | 110 | 89.4 | 62.5 | 1.7

C/C(=C\c1csc(C)n1)[C@@H]1C[C@@H]2O[C@]2(C)CCC[C@H](C)[C@H](O)[C@@H](C)C(=O)C(C)(C)[C@@H](O)CC(=O)N1 [ixabepilone] + CC(=O)[C@H]1CC[C@H]2[C@@H]3CCC4=CC(=O)CC[C@]4(C)[C@H]3CC[C@]12C [Progesterone]
cell viability [%]
Conditions | drug 2 concentration 0 µM | drug 2 concentration 0.0493827 µM | drug 2 concentration 0.148148 µM | drug 2 concentration 0.444444 µM | drug 2 concentration 1.33333 µM | drug 2 concentration 4 µM
drug 1 concentration 0.00185185 µM | 95.2 | 98.6 | 92.8 | 103 | 89.6 | 85.9
drug 1 concentration 0.00555556 µM | 104 | 104 | 106 | 103 | 106 | 95.4
drug 1 concentration 0.0166667 µM | 89.1 | 95.9 | 92.4 | 92 | 93.6 | 87.6
drug 1 concentration 0.05 µM | 101 | 101 | 97.4 | 102 | 98.8 | 82.6
drug 1 concentration 0.15 µM | 99.2 | 101 | 101 | 99.2 | 103 | 97.6

C/C(=C\c1csc(C)n1)[C@@H]1C[C@@H]2O[C@]2(C)CCC[C@H](C)[C@H](O)[C@@H](C)C(=O)C(C)(C)[C@@H](O)CC(=O)N1 [ixabepilone] + CN(C)C1CCN(C(=O)c2ccc(NC(=O)Nc3ccc(-c4nc(N5CCOCC5)nc(N5CCOCC5)n4)cc3)cc2)CC1 [Gedatolisib (PF-05212384; PKI-587)]
cell viability [%]
Conditions | drug 2 concentration 0 µM | drug 2 concentration 0.0148148 µM | drug 2 concentration 0.0444444 µM | drug 2 concentration 0.133333 µM | drug 2 concentration 0.4 µM | drug 2 concentration 1.2 µM
drug 1 concentration 0.00185185 µM | 96.2 | 68.9 | 54.1 | 43.8 | 38.1 | 36.7
drug 1 concentration 0.00555556 µM | 105 | 76.4 | 53.3 | 43.8 | 40.7 | 36.5
drug 1 concentration 0.0166667 µM | 92.6 | 70.9 | 56.6 | 43.6 | 39.4 | 38.8
drug 1 concentration 0.05 µM | 108 | 82.1 | 55.2 | 45.1 | 40.9 | 38.7
drug 1 concentration 0.15 µM | 116 | 75.1 | 55.5 | 45.6 | 40 | 38

C/C(=C\c1csc(C)n1)[C@@H]1C[C@@H]2O[C@]2(C)CCC[C@H](C)[C@H](O)[C@@H](C)C(=O)C(C)(C)[C@@H](O)CC(=O)N1 [ixabepilone] + CN(C)C(=O)c1cc2cnc(Nc3ccc(N4CCNCC4)cn3)nc2n1C1CCCC1 [Ribociclib]
cell viability [%]
Conditions | drug 2 concentration 0 µM | drug 2 concentration 0.123457 µM | drug 2 concentration 0.37037 µM | drug 2 concentration 1.11111 µM | drug 2 concentration 3.33333 µM | drug 2 concentration 10 µM
drug 1 concentration 0.00185185 µM | 91.3 | 87.3 | 87.7 | 84 | 84.3 | 85.5
drug 1 concentration 0.00555556 µM | 88.3 | 85.1 | 83.8 | 83.5 | 88.4 | 85.3
drug 1 concentration 0.0166667 µM | 76.9 | 78.9 | 78.3 | 82.7 | 76.8 | 75.2
drug 1 concentration 0.05 µM | 79.1 | 89.6 | 90.9 | 87.8 | 84.6 | 74.5
drug 1 concentration 0.15 µM | 91.6 | 99 | 91.5 | 85.2 | 83.6 | 73.9

C/C(=C\c1csc(C)n1)[C@@H]1C[C@@H]2O[C@]2(C)CCC[C@H](C)[C@H](O)[C@@H](C)C(=O)C(C)(C)[C@@H](O)CC(=O)N1 [ixabepilone] + COc1cc2nc(N3CCN(C(=O)C4CCCO4)CC3)nc(N)c2cc1OC [Terazosin (hydrochloride dihydrate)]
cell viability [%]
Conditions | drug 2 concentration 0 µM | drug 2 concentration 0.0308642 µM | drug 2 concentration 0.0925926 µM | drug 2 concentration 0.277778 µM | drug 2 concentration 0.833333 µM | drug 2 concentration 2.5 µM
drug 1 concentration 0.00185185 µM | 92.3 | 100 | 99.7 | 103 | 90.9 | 88.5
drug 1 concentration 0.00555556 µM | 100 | 105 | 97 | 98.6 | 95.7 | 93
drug 1 concentration 0.0166667 µM | 77.7 | 82.7 | 91 | 88.7 | 78.1 | 71
drug 1 concentration 0.05 µM | 92.9 | 101 | 98.7 | 97.1 | 94.1 | 86.6
drug 1 concentration 0.15 µM | 97.9 | 102 | 103 | 102 | 86.5 | 77.5

C/C(=C\c1csc(C)n1)[C@@H]1C[C@@H]2O[C@]2(C)CCC[C@H](C)[C@H](O)[C@@H](C)C(=O)C(C)(C)[C@@H](O)CC(=O)N1 [ixabepilone] + COc1cc2ncnc(Nc3ccc(F)c(Cl)c3)c2cc1NC(=O)/C=C/CN1CCCCC1 [Dacomitinib]
cell viability [%]
Conditions | drug 2 concentration 0 µM | drug 2 concentration 0.246914 µM | drug 2 concentration 0.740741 µM | drug 2 concentration 2.22222 µM | drug 2 concentration 6.66667 µM | drug 2 concentration 20 µM
drug 1 concentration 0.00185185 µM | 106 | 98.5 | 98.7 | 87.5 | 28.1 | 0.692
drug 1 concentration 0.00555556 µM | 108 | 103 | 104 | 87.5 | 46.8 | 0.502
drug 1 concentration 0.0166667 µM | 101 | 102 | 95.8 | 90.4 | 34 | 0.97
drug 1 concentration 0.05 µM | 119 | 110 | 115 | 100 | 28.9 | 0.722
drug 1 concentration 0.15 µM | 126 | 122 | 121 | 96.6 | 26.8 | 0.806

C/C(=C\c1csc(C)n1)[C@@H]1C[C@@H]2O[C@]2(C)CCC[C@H](C)[C@H](O)[C@@H](C)C(=O)C(C)(C)[C@@H](O)CC(=O)N1 [ixabepilone] + COc1cc(Nc2ncc3c(n2)-c2ccc(Cl)cc2C(c2c(F)cccc2OC)=NC3)ccc1C(=O)O [Alisertib]
cell viability [%]
Conditions | drug 2 concentration 0 µM | drug 2 concentration 0.0617284 µM | drug 2 concentration 0.185185 µM | drug 2 concentration 0.555556 µM | drug 2 concentration 1.66667 µM | drug 2 concentration 5 µM
drug 1 concentration 0.00185185 µM | 101 | 102 | 109 | 105 | 108.8 | 91.4
drug 1 concentration 0.00555556 µM | 105 | 107.2 | 99.7 | 105 | 99.6 | 96.7
drug 1 concentration 0.0166667 µM | 107 | 110 | 105 | 104 | 104 | 97.9
drug 1 concentration 0.05 µM | 113 | 116 | 110 | 105 | 97.4 | 96.4
drug 1 concentration 0.15 µM | 126 | 121 | 115 | 106 | 105 | 99.5

C/C(=C\c1csc(C)n1)[C@@H]1C[C@@H]2O[C@]2(C)CCC[C@H](C)[C@H](O)[C@@H](C)C(=O)C(C)(C)[C@@H](O)CC(=O)N1 [ixabepilone] + N#CC1(c2ccc(NC(=O)c3cccnc3NCc3ccncc3)cc2)CCCC1 [Apatinib]
cell viability [%]
Conditions | drug 2 concentration 0 µM | drug 2 concentration 0.0617284 µM | drug 2 concentration 0.185185 µM | drug 2 concentration 0.555556 µM | drug 2 concentration 1.66667 µM | drug 2 concentration 5 µM
drug 1 concentration 0.00185185 µM | 105 | 102 | 108 | 116 | 116 | 110
drug 1 concentration 0.00555556 µM | 114 | 108 | 113 | 110 | 114 | 98
drug 1 concentration 0.0166667 µM | 105 | 98.4 | 107 | 120 | 109 | 102
drug 1 concentration 0.05 µM | 112.6 | 116 | 127 | 119 | 115 | 113
drug 1 concentration 0.15 µM | 121 | 117 | 120 | 113 | 116 | 114

Structures can show the parent of a compound that is named as a salt. Some well-known active drugs show little effect in this data set, so a weak value is uncertain.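 Drug pairs were tested on MCF7 breast cancer cells in a dose grid. On every plate, solvent-only DMSO wells served as the untreated reference, and a doxorubicin series served as the total-kill control. No hit threshold applies to the viability readings.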
